No constants are given. Whether binding was seen depends on the method and setting. Binding seen in cells or lysates may run through a third protein. Here binding means that the protein was enriched with, or labelled near, the bait; the list need not be complete.
Biological target: Flag-Snail1 (expressed in HeLa S3 cells) (UniProt O95863)
Assay: affinity purification with mass spectrometry; Snail1 complexes purified from nuclear extracts of 20 l HeLa S3 cells expressing Flag-Snail1; immunocomplex separated on SDS-PAGE, mass spectrometry

Amino acid sequences for entries named in this document (tags omitted).
UniProt O95863: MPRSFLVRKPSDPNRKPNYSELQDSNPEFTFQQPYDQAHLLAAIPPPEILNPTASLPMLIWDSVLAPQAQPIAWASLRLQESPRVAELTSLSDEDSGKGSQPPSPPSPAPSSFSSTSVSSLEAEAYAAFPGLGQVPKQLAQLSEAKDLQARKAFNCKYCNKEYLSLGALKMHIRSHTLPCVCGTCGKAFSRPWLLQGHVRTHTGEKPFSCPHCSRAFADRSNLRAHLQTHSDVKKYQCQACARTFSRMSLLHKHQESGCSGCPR
UniProt Q96KQ7: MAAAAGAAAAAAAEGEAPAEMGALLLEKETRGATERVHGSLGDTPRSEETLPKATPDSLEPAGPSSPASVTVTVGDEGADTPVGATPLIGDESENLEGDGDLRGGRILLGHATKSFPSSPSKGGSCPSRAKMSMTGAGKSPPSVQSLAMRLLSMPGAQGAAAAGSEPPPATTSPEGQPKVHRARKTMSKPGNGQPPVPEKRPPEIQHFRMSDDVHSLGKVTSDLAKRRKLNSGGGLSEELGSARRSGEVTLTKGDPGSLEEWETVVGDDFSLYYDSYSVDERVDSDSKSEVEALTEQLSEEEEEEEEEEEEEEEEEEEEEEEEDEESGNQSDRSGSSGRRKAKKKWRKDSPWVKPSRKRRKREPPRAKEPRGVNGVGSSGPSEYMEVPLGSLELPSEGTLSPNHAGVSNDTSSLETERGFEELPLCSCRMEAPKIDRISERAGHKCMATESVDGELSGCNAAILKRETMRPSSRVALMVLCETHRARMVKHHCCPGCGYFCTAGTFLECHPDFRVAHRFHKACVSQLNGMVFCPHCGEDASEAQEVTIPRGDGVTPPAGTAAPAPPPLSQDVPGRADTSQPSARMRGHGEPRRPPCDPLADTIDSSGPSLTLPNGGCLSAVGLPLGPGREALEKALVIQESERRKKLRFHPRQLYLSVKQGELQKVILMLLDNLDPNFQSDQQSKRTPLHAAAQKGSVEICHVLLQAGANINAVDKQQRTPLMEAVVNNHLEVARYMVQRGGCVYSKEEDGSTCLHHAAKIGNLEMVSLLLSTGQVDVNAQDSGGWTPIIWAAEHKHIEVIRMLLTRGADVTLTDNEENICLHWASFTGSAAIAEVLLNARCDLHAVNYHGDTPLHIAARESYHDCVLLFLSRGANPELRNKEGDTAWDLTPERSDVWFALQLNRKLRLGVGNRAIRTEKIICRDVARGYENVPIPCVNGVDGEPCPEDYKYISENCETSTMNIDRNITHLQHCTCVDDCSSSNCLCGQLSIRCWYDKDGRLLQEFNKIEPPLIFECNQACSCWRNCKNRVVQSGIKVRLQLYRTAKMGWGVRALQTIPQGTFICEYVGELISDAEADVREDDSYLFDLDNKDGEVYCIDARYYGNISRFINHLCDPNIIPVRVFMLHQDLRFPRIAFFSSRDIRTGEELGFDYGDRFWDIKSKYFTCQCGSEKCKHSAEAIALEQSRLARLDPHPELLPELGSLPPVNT

Row | binding | Molecule
1 | binds | G9a (from UniProt Q96KQ7 1-1210)
2 | binds | Dub3 (endogenous, HeLa S3) (enzyme, UniProt Q6R6M4 1-530) MEDDSLYLGGEWQFNHFSKLTSSRPDAAFAEIQRTSLPEKSPLSSEARVDLCDDLAPVARQLAPRKKLPLSSRRPAAVGAGLQNMGNTCYENASLQCLTYTPPLANYMLSREHSQTCQRPKCCMLCTMQAHITWALHSPGHVIQPSQALAAGFHRGKQEDAHEFLMFTVDAMKKACLPGHKQVDHHSKDTTLIHQIFGGCWRSQIKCLHCHGISDTFDPYLDIALDIQAAQSVKQALEQLVKPEELNGENAYHCGLCLQRAPASKTLTLHTSAKVLILVLKRFSDVTGNKLAKNVQYPECLDMQPYMSQQNTGPLVYVLYAVLVHAGWSCHDGHYFSYVKAQEGQWYKMDDAKVTACSITSVLSQQAYVLFYIQKSEWERHSESVSRGREPRALGAEDTDRRATQGELKRDHPCLQAPELDERLVERATQESTLDHWKFPQEQNKTKPEFNVRKVEGTLPPNVLVIHQSKYKCGMKNHHPEQQSSLLNLSSTTRTDQESVNTGTLASLQGRTRRSKGKNKHSKRALLVCQ
3 | binds | Suv39H1 (protein, UniProt O43463 1-412) MAENLKGCSVCCKSSWNQLQDLCRLAKLSCPALGISKRNLYDFEVEYLCDYKKIREQEYYLVKWRGYPDSESTWEPRQNLKCVRILKQFHKDLERELLRRHHRSKTPRHLDPSLANYLVQKAKQRRALRRWEQELNAKRSHLGRITVENEVDLDGPPRAFVYINEYRVGEGITLNQVAVGCECQDCLWAPTGGCCPGASLHKFAYNDQGQVRLRAGLPIYECNSRCRCGYDCPNRVVQKGIRYDLCIFRTDDGRGWGVRTLEKIRKNSFVMEYVGEIITSEEAERRGQIYDRQGATYLFDLDYVEDVYTVDAAYYGNISHFVNHSCDPNLQVYNVFIDNLDERLPRIAFFATRTIRAGEELTFDYNMQVDPVDMESTRMDSNFGLAGLPGSPKKRVRIECKCGTESCRKYLF
